Results of single-concentration screens

Chains of the proteins cited; added tags and fusions are not shown.
UniProt I6X8D2, whole entry: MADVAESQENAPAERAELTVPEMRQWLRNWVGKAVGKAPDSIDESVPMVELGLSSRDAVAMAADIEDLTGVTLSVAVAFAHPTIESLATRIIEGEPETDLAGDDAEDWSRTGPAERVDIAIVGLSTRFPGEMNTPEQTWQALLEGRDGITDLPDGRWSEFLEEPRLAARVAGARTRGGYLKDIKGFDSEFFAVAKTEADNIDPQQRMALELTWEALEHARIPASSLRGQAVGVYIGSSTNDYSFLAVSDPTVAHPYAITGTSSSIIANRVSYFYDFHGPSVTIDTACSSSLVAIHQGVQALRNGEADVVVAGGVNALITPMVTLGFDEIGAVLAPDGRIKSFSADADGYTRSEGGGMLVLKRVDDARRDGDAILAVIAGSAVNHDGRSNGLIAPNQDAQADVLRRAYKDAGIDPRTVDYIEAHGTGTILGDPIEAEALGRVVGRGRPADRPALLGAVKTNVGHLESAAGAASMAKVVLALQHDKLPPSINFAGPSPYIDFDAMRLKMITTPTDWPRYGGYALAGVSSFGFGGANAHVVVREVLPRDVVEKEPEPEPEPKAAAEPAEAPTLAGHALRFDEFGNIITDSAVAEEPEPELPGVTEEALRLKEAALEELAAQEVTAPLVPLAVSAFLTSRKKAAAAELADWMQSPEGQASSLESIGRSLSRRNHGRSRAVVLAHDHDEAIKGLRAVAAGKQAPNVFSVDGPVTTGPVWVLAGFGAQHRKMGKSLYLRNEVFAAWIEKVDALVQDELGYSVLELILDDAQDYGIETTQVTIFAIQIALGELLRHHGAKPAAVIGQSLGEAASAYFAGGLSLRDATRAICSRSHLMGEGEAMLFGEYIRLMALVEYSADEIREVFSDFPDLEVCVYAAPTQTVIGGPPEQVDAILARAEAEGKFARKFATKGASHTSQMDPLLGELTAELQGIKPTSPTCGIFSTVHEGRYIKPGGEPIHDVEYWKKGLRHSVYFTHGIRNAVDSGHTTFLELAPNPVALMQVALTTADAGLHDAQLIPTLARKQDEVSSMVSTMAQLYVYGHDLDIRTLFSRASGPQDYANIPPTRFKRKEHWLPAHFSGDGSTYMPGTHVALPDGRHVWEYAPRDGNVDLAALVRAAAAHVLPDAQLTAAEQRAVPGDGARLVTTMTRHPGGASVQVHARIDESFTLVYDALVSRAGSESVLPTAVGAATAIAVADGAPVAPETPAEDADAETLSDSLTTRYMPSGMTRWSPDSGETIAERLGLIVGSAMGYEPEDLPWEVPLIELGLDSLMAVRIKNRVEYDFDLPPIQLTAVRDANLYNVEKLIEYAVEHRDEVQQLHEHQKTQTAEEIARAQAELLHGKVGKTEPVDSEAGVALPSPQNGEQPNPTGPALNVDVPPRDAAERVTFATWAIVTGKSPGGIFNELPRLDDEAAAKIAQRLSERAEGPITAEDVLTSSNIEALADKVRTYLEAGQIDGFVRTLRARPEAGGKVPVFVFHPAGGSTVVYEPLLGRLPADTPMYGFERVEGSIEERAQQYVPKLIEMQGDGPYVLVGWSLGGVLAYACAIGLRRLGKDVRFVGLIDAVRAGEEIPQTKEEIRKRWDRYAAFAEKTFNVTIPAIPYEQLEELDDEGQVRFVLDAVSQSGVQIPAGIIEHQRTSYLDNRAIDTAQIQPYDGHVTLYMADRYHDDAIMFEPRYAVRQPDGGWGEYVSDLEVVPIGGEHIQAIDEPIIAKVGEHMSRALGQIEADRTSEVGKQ
UniProt P9WNZ1, whole entry: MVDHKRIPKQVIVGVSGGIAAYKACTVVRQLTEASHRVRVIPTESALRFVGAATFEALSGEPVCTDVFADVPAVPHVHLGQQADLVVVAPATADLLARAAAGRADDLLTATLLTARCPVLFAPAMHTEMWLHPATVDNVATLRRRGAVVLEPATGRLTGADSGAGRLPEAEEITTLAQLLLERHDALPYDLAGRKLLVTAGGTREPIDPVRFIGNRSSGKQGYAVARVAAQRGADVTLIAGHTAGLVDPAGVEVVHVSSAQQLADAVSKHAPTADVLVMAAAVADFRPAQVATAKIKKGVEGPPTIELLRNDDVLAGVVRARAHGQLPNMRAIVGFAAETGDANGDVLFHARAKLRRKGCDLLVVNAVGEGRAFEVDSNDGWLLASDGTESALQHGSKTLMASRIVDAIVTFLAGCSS
UniProt P9WFT3, whole entry: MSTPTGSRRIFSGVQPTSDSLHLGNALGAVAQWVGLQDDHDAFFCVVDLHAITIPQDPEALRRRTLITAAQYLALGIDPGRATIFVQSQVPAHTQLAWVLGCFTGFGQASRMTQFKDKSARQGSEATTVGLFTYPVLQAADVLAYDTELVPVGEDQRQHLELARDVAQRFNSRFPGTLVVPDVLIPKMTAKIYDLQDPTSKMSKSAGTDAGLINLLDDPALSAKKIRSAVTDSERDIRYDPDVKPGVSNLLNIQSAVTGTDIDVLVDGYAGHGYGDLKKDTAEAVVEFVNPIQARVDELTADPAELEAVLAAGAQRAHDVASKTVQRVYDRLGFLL

Pks13 thioesterase: 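Polyketide synthase Pks13, Mycobacterium tuberculosis (UniProt I6X8D2). Enzyme assay of the thioesterase domain of polyketide synthase 13; the read-out is not stated. Tested at 30 µM. Higher reads as stronger inhibition (inferred from which compounds were picked for retests). About 67,000 compounds were tested under these conditions; 0.46% (about 300) showed 50% or more at least once.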
CoaBC: 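Coenzyme A biosynthesis protein CoaBC, Mycobacterium tuberculosis (UniProt P9WNZ1). Enzyme assay of CoaBC with a phosphate dye (Biomol Green) read at 650 nm. Tested at 30 µM. Higher reads as stronger inhibition, judged from the few compounds that gave an IC50. Most strong results did not repeat in a second test. Size under these conditions: about 67,000 compounds, about 40 of them at 50% or above in at least one test.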
Leishmania in macrophages: 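Cell assay of Leishmania donovani living inside macrophages; the read-out is not stated. Concentration: 30 µM. The record gives no direction; compounds that gave an IC50 in retests scored well above the rest, so higher reads as stronger inhibition. Size under these conditions: about 69,000 compounds, about 1,000 of them at 50% or above in at least one test.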
MtTrpRS: 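Enzyme assay of tryptophanyl-tRNA synthetase; the read-out is not stated. Target: Tryptophan-tRNA ligase, Mycobacterium tuberculosis (UniProt P9WFT3). Concentration: 10 µM. Higher most likely means stronger inhibition; the record gives no direction and few retests gave an IC50. Of about 65,000 compounds tested this way, about 64 (0.098%) reached 50% or more in at least one test.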

Results are given as percent effect. How 0% and 100% were set is not recorded. Most values in the screen are low, and negative values occur. The compounds are a random part of those screened. Two or more numbers in one place are separate tests of the same structure; such repeats can differ widely. A dash means the value is not listed here; it may have been measured.

For O=C(C1CC(=O)N(c2ccccc2Br)C1)N1CCC2(CC1)OCCO2 (stereo not shown) the result was Pks13 thioesterase: -7.459%; CoaBC: -10.71%; Leishmania in macrophages: 6.778%; MtTrpRS: -3.73%.
For [H][C@]12CN(C)CCN1C(=O)N(C1CCOCC1)C2 the result was Leishmania in macrophages: -16.52%.
For COc1ncc(C2(O)CCN(Cc3cccc(F)c3F)CC2)c(OC)n1.Cl the result was Leishmania in macrophages: 12.05% & 3.337%.
For Cc1noc([C@@H]2CCO[C@@H]3CCN(Cc4cccs4)C[C@@H]32)n1 the result was Pks13 thioesterase: 2.923%; CoaBC: -7.099%; MtTrpRS: -0.9931%.
For COc1ccc(Cl)cc1CS(=O)(=O)Cc1noc(C)n1 the result was Pks13 thioesterase: -15.03%; CoaBC: 0.4016%; Leishmania in macrophages: 34.45%; MtTrpRS: 9.372%.
For CCN1CCN(S(=O)(=O)c2cc(C)c(Cl)cc2C)CC1 the result was Pks13 thioesterase: -10.91%; CoaBC: 1.952%; Leishmania in macrophages: -19.65%; MtTrpRS: 2.007%.
For O=C(Cc1ccn[nH]1)Nc1cncc(Br)c1O the result was Pks13 thioesterase: -20.07%; CoaBC: 4.925%; Leishmania in macrophages: -15.23%; MtTrpRS: 0.4244%.
For COC(=O)COc1ccc(-c2noc(C3CCCO3)n2)cc1 (stereo not shown) the result was Pks13 thioesterase: -9.915%; CoaBC: -3.037%; Leishmania in macrophages: 21.72%; MtTrpRS: -1.905%.
For COC(=O)[C@H]1CN(C(=O)c2cscn2)C[C@@H]1c1ccc(F)cc1 the result was Pks13 thioesterase: -6.133%; CoaBC: 1.112%; Leishmania in macrophages: 15.98%; MtTrpRS: -3.922%.
For C[C@]1(O)CCN(Cc2cccnc2)C[C@@H]1Oc1cccc(F)c1 the result was Pks13 thioesterase: 11.14%; CoaBC: 0.7282%; Leishmania in macrophages: 24.65% & 1.772%.
For COc1c(CNCc2nnc3n2CCCCC3)c(C(C)C)nn1C the result was Pks13 thioesterase: -9.718%; CoaBC: 6.612%; MtTrpRS: -3.772%.
For COc1ccc2cc(CN(C)C(C)c3nc(C(C)(C)C)no3)ccc2c1 (stereo not shown) the result was Pks13 thioesterase: -24.01%; CoaBC: 11.44%; Leishmania in macrophages: 20.66%; MtTrpRS: -3.767%.
For CC(C)Oc1ccc2c(NC(=O)CN(C)C)nn(CC(F)(F)F)c2c1 the result was Pks13 thioesterase: -10.63%; CoaBC: 0%; Leishmania in macrophages: 43.9%; MtTrpRS: -0.9889%.
For CCOc1ccc(CNCc2ccc(C(=O)NC)cc2)cc1OCC the result was Pks13 thioesterase: -71.76%; CoaBC: -0.2415%; Leishmania in macrophages: 32.86%; MtTrpRS: -1.636%.
For COc1cc(N2CCC3(CCCN(C(=O)c4cnccn4)C3)C2)ncn1.O=C(O)C(F)(F)F (stereo not shown) the result was Leishmania in macrophages: 0.08848%.
For O=C(c1nn[nH]c1Nc1ccc(Cl)cc1)N1CCSCC1 the result was Pks13 thioesterase: -52.31%; CoaBC: 11.68%; Leishmania in macrophages: -0.5855%; MtTrpRS: 4.092%.
For COCCC1(CNC(=O)NC2CCCN(C)C2)CC1 (stereo not shown) the result was Pks13 thioesterase: -1.711%; CoaBC: -0.2141%; Leishmania in macrophages: -22.84%; MtTrpRS: -6.657%.

Some entries from above, unchanged:

structure	Pks13 thioesterase	CoaBC	Leishmania in macrophages	MtTrpRS
[H][C@]12CN(C)CCN1C(=O)N(C1CCOCC1)C2	-	-	-16.52%	-
COc1ncc(C2(O)CCN(Cc3cccc(F)c3F)CC2)c(OC)n1.Cl	-	-	12.05% & 3.337%	-

Measurements from “University of Dundee, Small-Polar-MMV Screening Library” (2021), ChEMBL document CHEMBL3988442.